Results: paper PMC4703060
Positions count from the first letter of the chain named. Results are given in words; binding and its absence hold for the method and conditions named. Binding seen in cells or lysates may run through a third protein. Some results given as binding are weak or reduced against the parent protein; the word gives no strength. Where a sequence is shown, tags or fusion partners need not be part of it.

Sequences of proteins named here, by UniProt entry; tags and fusion partners are left off. A change or cut given only in a name is not applied to a line headed by its entry. A line that says so, or that is headed by a name, gives the form on record, which may keep a tag or linker. Residues count along the entry.
HA-tagged C2 domain of WWP2 (C2-only, 1-143) (O00308, residues 1-143): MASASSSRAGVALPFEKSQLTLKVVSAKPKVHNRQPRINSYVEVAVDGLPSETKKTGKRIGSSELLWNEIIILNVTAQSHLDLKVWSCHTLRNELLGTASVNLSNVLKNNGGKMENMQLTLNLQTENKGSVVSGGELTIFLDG
HA-WWP2 with residues 1-300 deleted (N-terminally truncated WWP2) (O00308, residues 301-870): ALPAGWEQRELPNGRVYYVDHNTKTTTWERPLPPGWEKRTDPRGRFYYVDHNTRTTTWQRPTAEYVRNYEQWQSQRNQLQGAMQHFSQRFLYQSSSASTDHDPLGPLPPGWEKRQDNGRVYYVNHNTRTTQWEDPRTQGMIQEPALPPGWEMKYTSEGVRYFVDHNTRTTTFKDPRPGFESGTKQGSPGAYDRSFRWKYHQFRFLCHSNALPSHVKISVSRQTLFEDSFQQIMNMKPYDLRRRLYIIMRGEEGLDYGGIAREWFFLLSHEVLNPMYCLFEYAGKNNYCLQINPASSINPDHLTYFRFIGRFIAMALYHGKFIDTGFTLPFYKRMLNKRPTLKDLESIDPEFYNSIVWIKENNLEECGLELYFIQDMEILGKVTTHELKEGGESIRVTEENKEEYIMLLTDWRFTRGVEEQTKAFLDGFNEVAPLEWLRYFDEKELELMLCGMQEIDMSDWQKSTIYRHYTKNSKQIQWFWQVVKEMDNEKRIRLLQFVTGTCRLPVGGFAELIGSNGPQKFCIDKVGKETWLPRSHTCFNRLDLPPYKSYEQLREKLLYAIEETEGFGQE

Key:
Experiment in all cases: co-IP; HEK293T cells co-transfected with GFP-tagged DEP domain of Dvl2 and HA-tagged ligases or HA-WWP2 truncations; α-GFP IP with GFP-Trap agarose beads, 1 h at 4°C; Western blot
DEP-GFP D460K (human) = molecular target: T1, DEP-GFP D460K (human) (UniProt O14641)
T1 sequence: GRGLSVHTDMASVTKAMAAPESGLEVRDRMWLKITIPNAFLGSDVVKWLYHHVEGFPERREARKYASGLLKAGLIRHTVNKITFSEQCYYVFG

DEP-GFP K446M (human) = molecular target: T2, DEP-GFP K446M (human) (UniProt O14641)
T2 sequence: T1 sequence with K33M, K47D

[1] = molecular target: T3, DEP-GFP (minimal DEP domain of Dvl2, 414-506, tagged with green fluorescent protein) (human) (UniProt O14641)
T3 sequence: T1 sequence with K47D

| Substance | binding (DEP-GFP D460K (human)) | binding (DEP-GFP K446M (human)) | binding [1] |
| --- | --- | --- | --- |
| HA-tagged C2 domain of WWP2 (C2-only, 1-143) (from UniProt O00308 1-143) (domain or fragment) | no binding | binds | binds |
| HA-WWP2 with residues 1-300 deleted (N-terminally truncated WWP2) (from UniProt O00308 301-870) (domain or fragment) | – | – | no binding |
